For assay [1], the target named is T1, GST fusion of CDPME kinase (IspE) from Bacillus subtilis (Bacillus subtilis 168) (UniProt P37550).
T1 sequence: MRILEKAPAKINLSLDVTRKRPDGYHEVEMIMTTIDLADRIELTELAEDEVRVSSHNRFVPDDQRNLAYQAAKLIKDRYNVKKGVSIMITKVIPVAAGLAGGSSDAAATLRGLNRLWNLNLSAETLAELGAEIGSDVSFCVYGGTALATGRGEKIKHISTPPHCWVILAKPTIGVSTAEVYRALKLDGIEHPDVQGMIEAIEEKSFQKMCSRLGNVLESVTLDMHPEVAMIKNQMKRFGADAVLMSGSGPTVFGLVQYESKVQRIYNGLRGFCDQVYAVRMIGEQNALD
Nature of the assay: SEC; Superdex75 10/300 GL; single B. subtilis proteins and triple mixture (0.2 mg each, 250 μl); 100 mM NaCl, 25 mM Tris/HCl pH 8.0; 1 mM MgCl2, 1 mM MEP, 1 mM CTP if IspD present; 30°C 30 min; both purified. On the technique in general: SEC sorts molecules by how far they enter the pores of the column.

Chains of the proteins cited; added tags and fusions are not shown.
UniProt Q06755: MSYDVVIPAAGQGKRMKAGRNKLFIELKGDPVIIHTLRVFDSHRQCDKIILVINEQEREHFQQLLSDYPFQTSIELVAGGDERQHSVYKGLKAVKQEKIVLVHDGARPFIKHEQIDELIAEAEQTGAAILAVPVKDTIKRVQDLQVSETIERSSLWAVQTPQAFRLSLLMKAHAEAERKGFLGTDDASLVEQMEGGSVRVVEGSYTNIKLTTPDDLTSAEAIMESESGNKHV

The target of assay [2] is T1, GST fusion of CDPME kinase (IspE) from Bacillus subtilis (Bacillus subtilis 168). Put plainly: native gel or EMSA; native gel shift of mixtures of two or three proteins, 2.5 μg/μl each, 10% glycerol, 25 mM Tris/HCl pH 8.0, 100 mM NaCl, 12 μl; 1 mM MgCl2, 1 mM MEP, 1 mM CTP if IspD present; 30°C 30 min; 8% native PAGE, 1x TBE, 4°C; both purified. On the technique in general: A gel shift assay detects complexes by their altered migration in electrophoresis.

These are yes or no findings as the source states them, for the method shown. Tags and fused reporters may be left off the sequences shown.

As for “2-C-Methyl-D-erythritol-4-phosphate cytidyltransferase (IspD) from Bacillus subtilis (from UniProt Q06755 1-232) (enzyme)”, the binding result is recorded as “no binding (tested: 0.2 mg each in 250 μl)” in assay [1] and “no binding (tested: 2.5 μg/μl each)” in assay [2].

For the origin of these results see PMC5821942, “Crystal structure of IspF from Bacillus subtilis and absence of protein complex assembly amongst IspD/IspE/IspF enzymes in the MEP pathway” (Bioscience Reports, 2018).
